Experimental data reported in patent US8022052B2, “Inhibition of PPAR gamma expression by specific osteogenic oxysterols” (The Regents of the University of California, priority 2006, dated 2011).
Entries after “also recorded” stand apart in the source; their conditions may differ. At least one structure is not confirmed: it was looked up by name or label, or the drawing left a doubt.

Columns and labels:
Assay type in all cases: cell-based, mouse
[1] = system: C/EBPα; assay: C/EBPα mRNA expression in M2 cells by quantitative real-time PCR; conditions: 10 μM Tro, 24, 48, 96 hours
Experimental: . M2 cells at confluence were treated with control vehicle, 10 μM Tro, or 5 μM 20S, alone or in combination for 24 (FIG. 3A), 48 (FIG. 3B), and 96 (FIG. 3C) hours. C/EBPα mRNA expression was measured by quantitative real-time PCR. Fold changes in gene expression relative to the control were calculated using the ΔΔCt method and reported as the mean of triplicate determination ±SD (p<0.0001 for Tro vs. control and p<0.001 for Tro+20S vs. control at 24 hours (FIG. 3A); p<0.0001 for Tro vs. control and p<0.001 for Tro+20S vs. control at 48 hours (FIG. 3B); p<0.0001 for Tro or Tro+20S vs. control at 96 hours (FIG. 3C).

[2] = system: M2-10B4 (M2) murine pluripotent bone MSC line; assay: Tro-induced adipocyte formation in M2 cells, Oil red O staining; conditions: 10 μM Tro, 10 days
Experimental: (§1) M2 mouse MSCs were purchased from American Type Culture Collection (ATCC, Rockville, Md., USA). […] Cell culture was performed in 24- and 6-well plates for adipogenic differentiation and gene expression studies, respectively, and treatment with test agents was done in growth medium.
Oil red O staining for detection of adipocytes was performed as previously described. […] The number of adipocytes was quantitated by counting Oil red O-positive cells in five separate fields per well, in three wells per experimental condition. The results are reported as the mean of triplicate determination ±SD.
(§2) Adipocyte formation was examined by Oil red O staining. […] PPARγ expression was assessed by RT-qPCR after treating M2 cells with Tro in the presence or absence of 20S. […] PPARγ mRNA expression was measured by quantitative real-time PCR.
After 10 days, adipocyte formation was measured by Oil red O staining. The number of adipocytes was determined by counting Oil red O-positive cells in five separate fields per well, in three wells per experimental condition. […] After 48 h, PPARγ mRNA expression was measured by quantitative real-time PCR. […] Luciferase activity was measured after 24 h and normalized for transfection efficiency using the Renilla luciferase activity. […]

[3] = system: PPARγ; assay: PPARγ mRNA expression in M2 cells by RT-qPCR
Experimental: as §1
Total RNA was extracted with the RNA isolation kit from Stratagene (La Jolla, Calif., USA) according to the manufacturer's instructions. RNA was DNase-treated using DNA-free kit from Ambion (Austin, Tex., USA). Three micrograms of RNA was reverse-transcribed using reverse transcriptase from Stratagene to make single-stranded cDNA. The cDNA was mixed with Qi SYBR Green Supermix (Bio-Rad) for quantitative RT-PCR assay using a Bio-Rad I-cycler IQ quantitative thermocycler. […] Fold changes in gene expression were calculated using the ΔΔCt method. […]
as §2
After 10 days, adipocyte formation was measured by Oil red O staining. The number of adipocytes was determined by counting Oil red O-positive cells in five separate fields per well, in three wells per experimental condition. […] After 48 h, PPARγ mRNA expression was measured by quantitative real-time PCR. […]

[4] = system: aP2; assay: aP2 mRNA expression in M2 cells by quantitative real-time PCR; conditions: 10 μM Tro, 24, 48, 96 hours
Experimental: . M2 cells at confluence were treated with control vehicle, 10 μM Tro, or 5 μM 20S, alone or in combination for 24 hours (FIG. 4A), 48 hours (FIG. 4B), and 96 hours (FIG. 4C). aP2 mRNA expression was measured by quantitative real-time PCR. Fold changes in gene expression relative to the control were calculated using the ΔΔCt method and reported as the mean of triplicate determination ±SD (p<0.0001 for Tro or Tro+20S vs. control or 20S and p<0.01 for Tro vs. Tro+20S at 24 hours (FIG. 4A); p<0.0001 for Tro or Tro+20S vs. control or 20S and for Tro vs. Tro+20S at 48 hours (FIG. 4B); p<0.0001 for Tro vs. control, 20S, or Tro+20S and p<0.001 for Tro+20S vs. control or 20S at 96 hours (FIG. 4C)).

In the case of `Cc1c(C)c2c(c(C)c1O)CCC(C)(COc1ccc(CC3SC(=O)NC3=O)cc1)O2` (stereo not shown) [Tro, troglitazone], the “C/EBPα mRNA expression after Tro” value [1] is reported as “significantly increased”, the “adipocyte formation compared with control” value [2] is reported as “significantly increased; also recorded: greatly increased” and the “PPARγ mRNA expression after Tro (in words)” value [3] is reported as “significant increase”. For the same molecule, the “aP2 mRNA expression after Tro” value [4] was “significantly increased”.
